At least one compound was matched to its structure with a doubt left.
Molecular target: GPR81 (Homo sapiens, UniProt Q9BXC0)
Test: GPR81 agonist ligand activity, GTPγS binding assay (species of receptor not given)
Type: biochemical
Parameters: expressed in transfected cells; host or cells: GPR81-expressing cells / membranes (CHO)
Settings: yes/no

Protein sequences, listed by entry. Tags and fused reporters are not part of them.
UniProt Q9BXC0, whole entry, species assumed: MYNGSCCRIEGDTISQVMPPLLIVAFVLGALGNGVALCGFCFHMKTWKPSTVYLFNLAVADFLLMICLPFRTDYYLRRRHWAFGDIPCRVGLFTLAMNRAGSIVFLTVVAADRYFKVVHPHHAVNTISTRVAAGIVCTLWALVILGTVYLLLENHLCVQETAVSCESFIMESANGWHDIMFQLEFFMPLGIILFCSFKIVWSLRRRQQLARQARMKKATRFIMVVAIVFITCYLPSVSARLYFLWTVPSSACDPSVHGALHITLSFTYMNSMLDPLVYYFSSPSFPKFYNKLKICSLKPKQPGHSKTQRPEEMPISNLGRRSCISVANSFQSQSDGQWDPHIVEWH

## O=C(O)C(Cl)Cl [dichloroacetate (DCA), dichloroacetate]
  GPR81 agonist activity: yes
Listed as dichloroactetate
  GPR81 agonist activity: showed GPR81-agonist activity
